# The campaign covered roughly 360,000 compounds. About 7,500 (2.1%) were called active. Inconclusive results, whose numbers are uncertain, are shown with a selection of clear calls. The call rests on the fitted dose curve; in most records, active means well fitted inhibition curve with a large enough effect; inconclusive means small, poorly fitted or top-dose-only effect, or effect the other way; inactive means flat fitted curve, though single readings scatter. Potencies beside an inconclusive call are fits to weak or partial responses and may not hold up.
# Experiment: Nrf2 qHTS screen for inhibitors; further: nearly all actives have a fitted effect of over 60% in size
# Settings: A549 ARE-Fluc reporter, luciferase luminescence, 18-24 h; activity change, negative = inhibition: at 46 µM (top of the series)
# In short: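 A549 ARE_Fluc cells, 5000/well, 5% FBS OPTI-MEM; compounds in dose-response, 18-24 h at 37 °C/5% CO2; CellTiter-Fluor viability read (Ex 405/Em 525), then BugLite luciferase luminescence = Nrf2 activity.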
# On the % scale 0 is the no-effect control and ±100 the full control effect; potency means the concentration at half of the fitted maximal effect.
SMILES,"activity change, negative = inhibition",Potency
O=C1CC(c2ccco2)Sc2nc3ccccc3n21 (centres undefined),inactive: 17.5%,
COc1cc(NC(=O)COc2ccccc2[N+](=O)[O-])ccc1NC(=O)c1cccs1,,"inconclusive: 29.1 µM [falling, single point]"
CN1CCC(=O)N([C@H](CSc2ccc(Br)cc2)c2ccccc2)CC1,,"inconclusive: 20.6 µM [activator, single point]"
CCc1ccc(CN(Cc2ccco2)C(=O)c2cc(-c3ccc(C)c(F)c3)on2)cc1,,active: 16.4 µM
O=C1C2CCCCN2C(=O)N1CCN1CCN(c2ccc([N+](=O)[O-])cc2)CC1 (centres undefined),,"inconclusive: 10.3 µM [falling, partial curve]"
Fc1ccccc1Nc1nc(-c2ccncc2)nc2ccccc12,,"inconclusive: 11.6 µM [falling, partial curve]"
COc1ccc(N=Cc2oc3ccc4ccccc4c3c2O)cc1,,"inconclusive: 10.3 µM [activator, partial curve]"
O=C(Nc1ccc(F)cc1)c1ccc(S(=O)(=O)NCc2cccnc2)cc1,,active: 18.4 µM
Cc1ccc(NC(=O)CCc2nc3cccnc3n2-c2ccccc2)cc1Cl,,"inconclusive: 23.1 µM [falling, partial curve]"
CCc1nc(Cl)c(C#N)c2c1CCCC2,inactive: 16.9%,
COc1cccc(C2c3c(ncn(-c4ccccc4OC)c3=N)Oc3ccc4ccccc4c32)c1 (centres undefined),inactive: -26%,
COc1ccc(-n2c(=S)[nH]c3cc(C(=O)NCc4ccc(F)cc4)ccc3c2=O)c(OC)c1,,active: 16.4 µM
Fc1ccc(-c2cc3nc(-c4ccccc4)cc(N4CCN(CCN5CCOCC5)CC4)n3n2)cc1,,"inconclusive: 23.1 µM [falling, single point]"
CCOc1ccccc1C(=O)NC(C(=O)Nc1cccc(S(N)(=O)=O)c1)C(C)C (centres undefined),,"inconclusive: 23.1 µM [falling, partial curve, poor fit]"
Cc1ccc(-c2noc(-c3cccs3)n2)cc1,,"inconclusive: 1.64 µM [activator, full curve]"
COc1cc(NS(=O)(=O)c2ccc(F)cc2)c(C(=O)O)cc1OC,,"inconclusive: 0.92 µM [activator, full curve, poor fit]"
N=c1c2c(-c3ccccc3)c(-c3ccccc3)n(Cc3ccccc3)c2ncn1CCO,,"inconclusive: 2.31 µM [falling, full curve]"
CCOC(=O)c1c(-c2cccs2)csc1NC(=O)COC(=O)c1c(C)noc1C,,"inconclusive: 18.4 µM [falling, single point]"
O=S(=O)(c1ccc(NC2CCCCC2)cc1)N1CCOCC1,,"inconclusive: 20.6 µM [falling, partial curve, poor fit]"
O=C(Nc1ccccc1)C(=O)Nc1cccnc1,,"inconclusive: 2.91 µM [activator, partial curve]"
NS(=O)(=O)c1cccc(NC(=O)c2cc3ccccc3o2)c1,inactive: 2.66%,
CCc1cccc2c(C(=O)COC(=O)c3ccccc3)c[nH]c12,,"inconclusive: 18.4 µM [activator, single point]"

SMILES,"activity change, negative = inhibition",Potency
O=C(NCCSCc1ccccc1)c1ccc(C2SCC(=O)N2Cc2ccccc2)cc1 (centres undefined),,active: 10.3 µM
Cc1nc(NCCOc2ccccc2)sc1C(=O)Nc1ccccc1,,"inconclusive: 4.61 µM [activator, full curve]"
COc1ccc(C2C=C(c3ccc(Cl)cc3)Nc3nc(NC(=O)CCC(=O)O)nn32)cc1 (centres undefined),,"inconclusive: 23.1 µM [activator, partial curve, poor fit]"
Cc1ccc(S(=O)(=O)N/N=C/c2cnn(C)c2C)cc1,,"inconclusive: 25.9 µM [activator, single point]"
CN(Cc1ccccc1)c1ncnc2sccc12,,active: 16.4 µM
COc1cc(C(=O)O)ccc1OCc1c(C)noc1C,inactive: -4.16%,
COc1ccc(CC(=O)c2ccc(OC)c(OC)c2C)cc1OC,,"inconclusive: 29.1 µM [falling, single point]"
Nc1c(C(=O)O)sc2nc(-c3ccccc3)cc(-c3ccccc3)c12,,"inconclusive: 18.4 µM [activator, partial curve, poor fit]"
COc1cccc(CC(=O)Nc2ccc3nc(Nc4cccc(C(F)(F)F)c4)cc(C)c3c2)c1,,"inconclusive: 29.1 µM [falling, single point]"
COC(=O)c1cc2oc3ccccc3c2n1CC(=O)Nc1ccc(F)c(Cl)c1,inactive: -1.85%,
O=C(CCCCl)NC(=S)Nc1ccc(N2CCOCC2)cc1,,"inconclusive: 0.13 µM [activator, full curve, poor fit]"
O=C(NC(Cc1ccccc1)C(=O)N1CCCCC1)c1ccccc1 (centres undefined),inactive: -8.44%,
Cc1nn2cc(-c3ccc(N)cc3)nc2s1,,"inconclusive: 3.26 µM [activator, full curve, poor fit]"
O=C(CSc1nnc(NC(=O)C2CCC2)s1)NC1CC1,,"inconclusive: 32.6 µM [activator, single point]"
Cc1ccc2[nH]c(=O)c(CN(CCN3CCOCC3)C(=O)Nc3ccccc3F)cc2c1,inactive: -13.7%,
CNc1nc(-c2ccc3c(c2)CCN3C(=O)c2ccccc2C)cs1,,"inconclusive: 29.1 µM [activator, single point]"
Cc1ccc(SCC(c2ccccc2)N2CCN(CC(C)C)CCC2=O)cc1 (centres undefined),,"inconclusive: 9.2 µM [activator, partial curve, poor fit]"
O=C(O)CN1C(=O)/C(=C/c2ccsc2)SC1=S,,"inconclusive: 6.51 µM [falling, single point]"
Cc1cc(C)nc(NC(=O)/C=C/c2ccc(Cl)cc2Cl)c1,inactive: 5.03%,
CCn1nc(C(=O)N2CCN(Cc3nc4ccccc4s3)CC2)c2ccccc2c1=O,,"inconclusive: 25.9 µM [falling, partial curve, poor fit]"
S=C(NCCSCc1c(Cl)cccc1Cl)Nc1ccccc1,,"inconclusive: 32.6 µM [falling, single point]"
CCCCCCc1nc(C(N)=O)c2[nH]c(=O)n(-c3ccc(OC)cc3OC)c2n1,,"inconclusive: 29.1 µM [falling, partial curve, poor fit]"

# Laid out differently: entries from further up
SMILES	activity change, negative = inhibition	Potency
COc1ccc(CC(=O)c2ccc(OC)c(OC)c2C)cc1OC		inconclusive: 29.1 µM [falling, single point]
O=C(CCCCl)NC(=S)Nc1ccc(N2CCOCC2)cc1		inconclusive: 0.13 µM [activator, full curve, poor fit]

# — PubChem BioAssay AID504444 (National Center for Advancing Translational Sciences (NCATS), 2011)
